Data on two molecules can be found in publication PMC5108317.

Chains of the proteins cited; added tags and fusions are not shown. Lines headed by an entry give the natural chain unless they say otherwise; changes in a name come on top.
UniProt Q676U5: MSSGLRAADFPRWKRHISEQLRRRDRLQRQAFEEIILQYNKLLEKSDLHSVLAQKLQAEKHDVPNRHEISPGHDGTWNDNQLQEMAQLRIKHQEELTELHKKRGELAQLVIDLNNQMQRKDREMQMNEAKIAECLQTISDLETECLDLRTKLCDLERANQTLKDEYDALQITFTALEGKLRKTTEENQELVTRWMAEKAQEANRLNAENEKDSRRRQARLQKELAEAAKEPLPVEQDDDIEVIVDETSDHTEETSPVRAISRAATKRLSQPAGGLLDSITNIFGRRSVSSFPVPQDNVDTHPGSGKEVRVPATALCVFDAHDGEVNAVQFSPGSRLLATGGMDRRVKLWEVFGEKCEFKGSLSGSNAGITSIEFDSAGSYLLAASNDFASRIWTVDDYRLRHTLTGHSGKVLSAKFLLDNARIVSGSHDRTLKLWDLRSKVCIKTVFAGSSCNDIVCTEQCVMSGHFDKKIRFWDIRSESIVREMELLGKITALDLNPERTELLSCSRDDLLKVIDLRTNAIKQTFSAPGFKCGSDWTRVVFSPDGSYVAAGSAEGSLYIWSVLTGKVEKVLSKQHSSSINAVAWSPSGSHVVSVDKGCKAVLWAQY

No constants are given. Whether binding was seen depends on the method and setting. Binding seen in cells or lysates may run through a third protein. Binding calls can cover weak binding; strength is not graded here. Where a sequence is shown, tags or fusion partners need not be part of it.

In one test the target is T1, GST-EVA1A60–152 (human) (UniProt Q9H8M9).
T1 sequence: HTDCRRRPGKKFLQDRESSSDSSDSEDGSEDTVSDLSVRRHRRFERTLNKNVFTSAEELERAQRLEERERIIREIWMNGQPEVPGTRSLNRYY
Briefly: pull-down; GST or GST-EVA1A fusion proteins on glutathione-Sepharose 4B beads, mixed with whole-cell lysates of plasmid-transfected (HeLa) cells for 4 h at 4 °C, five washes, western blot; only the target purified.

The next test concerns the target FLAG-ATG16L1^Δ300 (UniProt Q676U5). The experiment in a line: co-IP; HeLa cells co-transfected for 24 h; total cell extracts in RIPA lysis buffer (1 mg per sample), IP with anti-FLAG or control mIgG and protein G sepharose, 4 h at 4 °C, five washes; GFP and FLAG detected by western blot. A general note: Immunoblotting shows a protein as a band on a membrane.

“FLAG-ATG16L1^Δ300 (from UniProt Q676U5) (domain or fragment)”: in the test with GST-EVA1A60–152 (human), the binding result was “binds”.

B1: GFP-EVA1A (protein, UniProt Q9H8M9 1-152)
chain: MRLPLSHSPEHVEMALLSNILAAYSFVSENPERAALYFVSGVCIGLVLTLAALVIRISCHTDCRRRPGKKFLQDRESSSDSSDSEDGSEDTVSDLSVRRHRRFERTLNKNVFTSAEELERAQRLEERERIIREIWMNGQPEVPGTRSLNRYY
B1: the binding entry with FLAG-ATG16L1^Δ300 is recorded as “binds”.
